Measurements published in the supplement of paper PMC6078165.
The reference is the same well before dosing, and untreated signal decays as well.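 Fibroblast labels name human fibroblasts: mostly primary ones from tissues such as uterus (C12385, HUF), lung (H6013), bone (Hs27A), adrenal (HADF) and skin (WS1), plus mammary HMF and breast cancer-associated Hs343T. The cancer cells are basal-like or mesenchymal-like triple-negative breast cancer lines. The paper calls a changed response a hit when it shifts by more than 3x the replicate standard deviation. The tissue of the other fibroblasts is not given here.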

Tested on: HCC1143
Test: relative JC-1 red fluorescence (viability) vs pre-drug, coculture with fibroblast (fraction); higher = more viable cancer cells
Method: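 JC-1 labelled TNBC cells cocultured 1:1 (1,500 cells each) with CellTrace Violet stained primary or stromal fibroblasts in 384-well plates in FluoroBrite medium, treated with one of 42 anticancer drugs at 0.1, 1, 10 or 100 uM. JC-1 red fluorescence (mitochondrial integrity in cancer cells only) was read by plate reader every 8 h for 72 h. Values are normalised to each well's pre-drug value. The stock of one drug was tenfold lower, so its dose labels may be too high.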

C#Cc1cccc(Nc2ncnc3cc(OCCOC)c(OCCOC)cc23)c1 [Erlotinib]
relative JC-1 red fluorescence
Details	8 h	16 h	24 h	32 h	40 h	48 h	56 h	64 h	72 h
0.1 µM, coculture fibroblast: C12385	0.88	0.796	0.728	0.656	0.575	0.514	0.461	0.428	0.41
0.1 µM, coculture fibroblast: H6013	0.726	0.642	0.601	0.588	0.501	0.488	0.4519	0.435	0.408
0.1 µM, coculture fibroblast: H6019	0.7932	0.716	0.663	0.589	0.547	0.508	0.452	0.405	0.368
0.1 µM, coculture fibroblast: H6076	0.8335	0.794	0.761	0.718	0.685	0.677	0.653	0.626	0.645
0.1 µM, coculture fibroblast: H6231	0.822	0.837	0.757	0.644	0.642	0.611	0.564	0.529	0.499
0.1 µM, coculture fibroblast: HADF	0.7189	0.62	0.579	0.592	0.482	0.463	0.429	0.402	0.386
0.1 µM, coculture fibroblast: HCFa	0.756	0.672	0.635	0.622	0.523	0.494	0.448	0.415	0.399
0.1 µM, coculture fibroblast: HCPF	0.7762	0.793	0.721	0.6	0.623	0.591	0.5469	0.5072	0.4882
0.1 µM, coculture fibroblast: HHSteC	0.8147	0.7205	0.693	0.649	0.571	0.54	0.497	0.474	0.446
0.1 µM, coculture fibroblast: HMF	0.797	0.829	0.771	0.659	0.677	0.648	0.605	0.574	0.545
0.1 µM, coculture fibroblast: HPFa	0.9315	0.857	0.812	0.7374	0.682	0.637	0.57	0.508	0.464
0.1 µM, coculture fibroblast: HUF	0.88	0.795	0.756	0.69	0.652	0.619	0.574	0.544	0.515
0.1 µM, coculture fibroblast: Hs5	0.84	0.856	0.793	0.7435	0.6952	0.66	0.625	0.588	0.574
0.1 µM, coculture fibroblast: Hs27A	0.721	0.645	0.609	0.629	0.506	0.485	0.432	0.398	0.376
0.1 µM, coculture fibroblast: Hs343T	0.8156	0.851	0.769	0.66	0.659	0.626	0.578	0.554	0.526
0.1 µM, coculture fibroblast: WS1	0.867	0.79	0.764	0.715	0.678	0.636	0.595	0.562	0.546
1 µM, coculture fibroblast: C12385	0.839	0.78	0.726	0.659	0.488	0.447	0.415	0.389	0.385
1 µM, coculture fibroblast: H6013	0.7444	0.673	0.632	0.618	0.563	0.569	0.541	0.533	0.5
1 µM, coculture fibroblast: H6019	0.837	0.799	0.77	0.725	0.688	0.666	0.622	0.581	0.5456
1 µM, coculture fibroblast: H6076	0.8188	0.845	0.8185	0.755	0.732	0.697	0.657	0.6428	0.6444
1 µM, coculture fibroblast: H6231	0.828	0.8736	0.812	0.647	0.719	0.682	0.644	0.601	0.561
1 µM, coculture fibroblast: HADF	0.7	0.643	0.613	0.626	0.527	0.494	0.456	0.429	0.417
1 µM, coculture fibroblast: HCFa	0.785	0.729	0.691	0.684	0.598	0.566	0.518	0.481	0.46
1 µM, coculture fibroblast: HCPF	0.796	0.831	0.791	0.6619	0.709	0.669	0.636	0.608	0.595
1 µM, coculture fibroblast: HHSteC	0.834	0.784	0.7503	0.729	0.663	0.638	0.601	0.572	0.536
1 µM, coculture fibroblast: HMF	0.789	0.85059	0.7894	0.658	0.702	0.663	0.622	0.601	0.571
1 µM, coculture fibroblast: HPFa	0.9059	0.849	0.832	0.746	0.698	0.66	0.599	0.558	0.518
1 µM, coculture fibroblast: HUF	0.874	0.8	0.749	0.675	0.635	0.596	0.545	0.51	0.484
1 µM, coculture fibroblast: Hs5	0.8363	0.827	0.801	0.7679	0.6992	0.673	0.64	0.625	0.6
1 µM, coculture fibroblast: Hs27A	0.704	0.639	0.597	0.612	0.482	0.46	0.413	0.382	0.373
1 µM, coculture fibroblast: Hs343T	0.808	0.832	0.779	0.701	0.704	0.67	0.627	0.611	0.586
1 µM, coculture fibroblast: WS1	0.839	0.779	0.731	0.651	0.593	0.539	0.495	0.452	0.424
10 µM, coculture fibroblast: C12385	0.882	0.833	0.769	0.712	0.649	0.617	0.588	0.559	0.537
10 µM, coculture fibroblast: H6013	0.771	0.713	0.68	0.678	0.593	0.589	0.558	0.549	0.547
10 µM, coculture fibroblast: H6019	0.833	0.7702	0.722	0.655	0.609	0.5825	0.54494	0.518	0.49
10 µM, coculture fibroblast: H6076	0.814	0.8661	0.841	0.748	0.77	0.755	0.723	0.697	0.694
10 µM, coculture fibroblast: H6231	0.832	0.889	0.836	0.661	0.755	0.722	0.694	0.65	0.612
10 µM, coculture fibroblast: HADF	0.719	0.654	0.631	0.669	0.565	0.534	0.514	0.496	0.54
10 µM, coculture fibroblast: HCFa	0.774	0.706	0.685	0.698	0.596	0.561	0.527	0.494	0.511
10 µM, coculture fibroblast: HCPF	0.8016	0.873	0.8437	0.684	0.76297	0.7265	0.6992	0.657	0.646
10 µM, coculture fibroblast: HHSteC	0.851	0.794	0.779	0.7782	0.696	0.662	0.636	0.62	0.615
10 µM, coculture fibroblast: HMF	0.7925	0.841	0.802	0.667	0.6956	0.674	0.632	0.608	0.585
10 µM, coculture fibroblast: HPFa	0.94783	0.8693	0.831	0.7371	0.686	0.656	0.5976	0.5632	0.5255
10 µM, coculture fibroblast: HUF	0.912	0.84	0.799	0.731	0.691	0.659	0.597	0.548	0.527
10 µM, coculture fibroblast: Hs5	0.8652	0.934	0.893	0.825	0.79	0.7637	0.735	0.706	0.694
10 µM, coculture fibroblast: Hs27A	0.72	0.66	0.621	0.66	0.526	0.494	0.462	0.438	0.491
10 µM, coculture fibroblast: Hs343T	0.808	0.884	0.843	0.701	0.755	0.7291	0.685	0.665	0.633
10 µM, coculture fibroblast: WS1	0.873	0.825	0.781	0.72	0.674	0.636	0.589	0.557	0.529
100 µM, coculture fibroblast: C12385	0.878	0.8448	0.7883	0.748	0.689	0.6582	0.65	0.62	0.6142
100 µM, coculture fibroblast: H6013	0.826	0.765	0.7284	0.734	0.656	0.6576	0.6434	0.633	0.655
100 µM, coculture fibroblast: H6019	0.905	0.885	0.875	0.836	0.834	0.851	0.847	0.849	0.836
100 µM, coculture fibroblast: H6076	0.834	0.815	0.7969	0.763	0.734	0.725	0.717	0.718	0.742
100 µM, coculture fibroblast: H6231	0.834	0.899	0.85	0.705	0.76	0.723	0.69	0.658	0.646
100 µM, coculture fibroblast: HADF	0.776	0.7379	0.7143	0.7546	0.6433	0.617	0.5964	0.583	0.648
100 µM, coculture fibroblast: HCFa	0.847	0.829	0.8112	0.813	0.72	0.701	0.67	0.64	0.652
100 µM, coculture fibroblast: HCPF	0.856	0.943	0.914	0.732	0.832	0.778	0.754	0.724	0.714
100 µM, coculture fibroblast: HHSteC	0.907	0.865	0.851	0.827	0.762	0.7452	0.7224	0.703	0.678
100 µM, coculture fibroblast: HMF	0.831	0.901	0.85	0.729	0.77	0.733	0.7	0.677	0.654
100 µM, coculture fibroblast: HPFa	0.907	0.849	0.83	0.748	0.717	0.709	0.672	0.658	0.643
100 µM, coculture fibroblast: HUF	0.952	0.892	0.859	0.777	0.73	0.703	0.67	0.649	0.622
100 µM, coculture fibroblast: Hs5	0.875	0.948	0.939	0.8925	0.8658	0.831	0.809	0.791	0.774
100 µM, coculture fibroblast: Hs27A	0.8027	0.777	0.74	0.79	0.664	0.664	0.64	0.629	0.667
100 µM, coculture fibroblast: Hs343T	0.8325	0.885	0.838	0.734	0.757	0.728	0.693	0.672	0.646
100 µM, coculture fibroblast: WS1	0.893	0.848	0.817	0.762	0.736	0.7	0.657	0.636	0.614
